System: NCI 60 cell line panel
Experiment: NCI COMPARE analysis
Details: Standard COMPARE, NCI synthetic database, GI50 mean graph

SMILES | Correlation Coefficient with seed compound 33
COc1cc([C@@H]2c3cc4c(cc3[C@H](OC(C)=O)[C@H]3COC(=O)[C@@H]23)OCO4)cc(OC)c1OC [Compound 31708] | 0.80
COC(=O)c1ccc2c(c1)CCN2C(=O)c1cc2c(cc1Br)OCO2 [Compound 705323] | 0.80
COc1cc(-n2cncc2-c2ccc3ccccc3c2)cc(OC)c1OC [Compound 736992] | 0.79
O=C(N/N=C/c1ccc(Cl)cc1)c1[nH]c2ccc(Cl)cc2c1-c1ccccc1 [Compound 747379] | 0.76
COc1cccc2cc(N(C)c3nc(C)nc4c3CCC4)ccc12 [Compound 782361] | 0.78
COc1cc(OC)c(/C=C/S(=O)(=O)Cc2ccc(OC)c(N)n2)c(OC)c1 [Compound 782882] | 0.80
CCC1=C[C@H]2CN(CCc3c([nH]c4ccccc34)[C@@](C(=O)OC)(c3cc4c(cc3OC)N(C)[C@H]3[C@@](O)(C(=O)OC)[C@H](OC(C)=O)[C@]5(CC)[C@@H]6C[C@@H]6CN6CC[C@]43[C@@H]65)C2)C1 [Compound 791526] | 0.81
COc1cc([C@H](C)c2ccc3ccccc3c2)cc(OC)c1OC [Compound 791945] | 0.75
COc1ccc(C(C)c2cc(OC)c(OC)c(OC)c2)cc1 (stereo not drawn) [Compound 791946] | 0.85
COc1cc(C(C)c2ccc3c(ccn3C)c2)cc(OC)c1OC (stereo not drawn) [Compound 791947] | 0.84
CCOC(=O)c1cc(C(=O)c2cc(OC)c(OC)c(OC)c2)n2nc(C)ccc12 [Compound 792769] | 0.83
COc1ccc(C2C(c3ccccc3)C(=O)N2c2cc(OC)c(OC)c(OC)c2)cc1I (stereo not drawn) [Compound 792957] | 0.83
CCSc1ccc(C2C(Br)C(=O)N2c2cc(OC)c(OC)c(OC)c2)cc1 (stereo not drawn) [Compound 792961] | 0.76
CCOc1ccccc1C(=O)N1CCN(c2cc(Cl)cc(Cl)c2)CC1 [Compound 794223] | 0.83
CCn1cc(/C=C2\Oc3cc(OCC#N)ccc3C2=O)c2cc(OC)ccc21 [Compound 794639] | 0.76
N#CC1=C(N)Oc2c(ccc3ccccc23)C1c1cc(=O)oc2ccc(Cl)cc12 (stereo not drawn) [Compound 794655] | 0.78
Cc1ccc2c(C3C(C#N)=C(N)Oc4cc5ccccc5cc43)cc(=O)oc2c1 (stereo not drawn) [Compound 794658] | 0.76
COc1ccc(-c2noc(C(=O)O)c2-c2cc(OC)c(OC)c(OC)c2)cc1 [Compound 799732] | 0.81

Reference: article PMC9501633, “Synthesis, Characterisation and Mechanism of Action of Anticancer 3-Fluoroazetidin-2-ones” (Pharmaceuticals, 2022)
